Experimental data: paper PMC6440744
Results are given in words; binding and its absence hold for the method and conditions named. In cells and extracts the contact can be indirect. These calls come from enrichment with a bait or labelling near it, and not all partners need be listed. For part of these data: Sequences can lack the tags named with a protein.

Chains of the proteins cited; added tags and fusions are not shown.
UniProt Q8TEW0: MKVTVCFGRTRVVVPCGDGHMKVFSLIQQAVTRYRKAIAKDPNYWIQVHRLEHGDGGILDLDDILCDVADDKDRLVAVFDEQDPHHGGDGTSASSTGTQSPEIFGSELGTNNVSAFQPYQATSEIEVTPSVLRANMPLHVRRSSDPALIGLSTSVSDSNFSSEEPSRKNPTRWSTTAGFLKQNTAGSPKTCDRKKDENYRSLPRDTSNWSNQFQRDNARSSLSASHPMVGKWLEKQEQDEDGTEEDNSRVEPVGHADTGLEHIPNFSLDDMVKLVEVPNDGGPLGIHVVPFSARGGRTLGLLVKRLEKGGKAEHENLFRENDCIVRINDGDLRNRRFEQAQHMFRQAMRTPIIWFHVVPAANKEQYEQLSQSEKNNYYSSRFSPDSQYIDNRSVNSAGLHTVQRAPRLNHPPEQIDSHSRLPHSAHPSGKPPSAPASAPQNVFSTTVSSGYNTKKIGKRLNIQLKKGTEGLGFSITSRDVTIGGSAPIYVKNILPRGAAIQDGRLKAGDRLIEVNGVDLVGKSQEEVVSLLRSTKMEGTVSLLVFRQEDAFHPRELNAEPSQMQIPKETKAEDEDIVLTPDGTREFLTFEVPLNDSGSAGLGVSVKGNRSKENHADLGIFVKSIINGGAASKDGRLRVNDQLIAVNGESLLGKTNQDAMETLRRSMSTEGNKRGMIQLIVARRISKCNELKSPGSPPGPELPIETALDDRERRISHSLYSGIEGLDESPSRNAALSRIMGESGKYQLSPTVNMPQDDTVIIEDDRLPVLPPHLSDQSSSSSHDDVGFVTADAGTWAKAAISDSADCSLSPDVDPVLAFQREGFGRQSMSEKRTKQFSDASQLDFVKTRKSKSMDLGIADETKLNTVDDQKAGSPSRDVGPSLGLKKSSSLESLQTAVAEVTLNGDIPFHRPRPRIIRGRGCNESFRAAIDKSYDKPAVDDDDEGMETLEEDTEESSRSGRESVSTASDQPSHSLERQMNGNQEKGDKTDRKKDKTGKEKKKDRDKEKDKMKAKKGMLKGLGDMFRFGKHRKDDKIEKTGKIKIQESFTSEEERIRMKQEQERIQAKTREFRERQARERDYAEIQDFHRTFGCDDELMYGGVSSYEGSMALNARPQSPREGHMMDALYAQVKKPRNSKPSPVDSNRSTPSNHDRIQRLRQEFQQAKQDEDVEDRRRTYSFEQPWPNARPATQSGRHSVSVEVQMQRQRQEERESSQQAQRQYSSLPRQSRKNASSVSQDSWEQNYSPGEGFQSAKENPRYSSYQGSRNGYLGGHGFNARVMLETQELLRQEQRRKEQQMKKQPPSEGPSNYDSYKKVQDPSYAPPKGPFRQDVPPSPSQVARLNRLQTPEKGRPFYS
UniProt O95819: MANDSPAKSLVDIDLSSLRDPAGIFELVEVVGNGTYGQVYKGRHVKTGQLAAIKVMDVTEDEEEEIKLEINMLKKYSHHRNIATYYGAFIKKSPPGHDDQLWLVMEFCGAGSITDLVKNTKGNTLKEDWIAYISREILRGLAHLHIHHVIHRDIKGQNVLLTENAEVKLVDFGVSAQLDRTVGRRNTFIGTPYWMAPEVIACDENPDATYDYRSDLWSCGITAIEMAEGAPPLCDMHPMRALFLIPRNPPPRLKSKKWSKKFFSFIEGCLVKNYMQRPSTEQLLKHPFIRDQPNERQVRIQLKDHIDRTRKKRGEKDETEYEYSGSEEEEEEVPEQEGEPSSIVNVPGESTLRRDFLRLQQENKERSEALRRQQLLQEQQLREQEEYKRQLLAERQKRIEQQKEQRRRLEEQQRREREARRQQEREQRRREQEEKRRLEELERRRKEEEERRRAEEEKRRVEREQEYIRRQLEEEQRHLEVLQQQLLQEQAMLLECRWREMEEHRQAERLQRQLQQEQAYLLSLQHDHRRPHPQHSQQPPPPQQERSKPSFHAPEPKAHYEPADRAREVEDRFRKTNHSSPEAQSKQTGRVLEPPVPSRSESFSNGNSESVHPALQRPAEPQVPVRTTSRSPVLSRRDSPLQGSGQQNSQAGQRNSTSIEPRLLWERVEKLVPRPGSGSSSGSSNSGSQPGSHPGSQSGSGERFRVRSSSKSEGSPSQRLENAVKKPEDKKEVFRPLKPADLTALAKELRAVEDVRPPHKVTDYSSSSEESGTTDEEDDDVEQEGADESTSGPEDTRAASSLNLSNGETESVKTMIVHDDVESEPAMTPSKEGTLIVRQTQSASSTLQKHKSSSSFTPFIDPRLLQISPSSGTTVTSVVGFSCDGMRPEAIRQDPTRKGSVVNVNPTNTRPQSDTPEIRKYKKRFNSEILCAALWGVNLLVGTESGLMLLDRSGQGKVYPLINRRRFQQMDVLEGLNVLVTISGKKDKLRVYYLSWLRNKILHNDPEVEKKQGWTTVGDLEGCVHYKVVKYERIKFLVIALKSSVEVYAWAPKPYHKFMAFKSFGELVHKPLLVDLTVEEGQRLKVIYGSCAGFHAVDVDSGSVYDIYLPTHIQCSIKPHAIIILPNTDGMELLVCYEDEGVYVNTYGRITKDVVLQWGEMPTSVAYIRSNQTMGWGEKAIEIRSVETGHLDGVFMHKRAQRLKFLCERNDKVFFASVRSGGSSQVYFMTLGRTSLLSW
UniProt Q8TEU7: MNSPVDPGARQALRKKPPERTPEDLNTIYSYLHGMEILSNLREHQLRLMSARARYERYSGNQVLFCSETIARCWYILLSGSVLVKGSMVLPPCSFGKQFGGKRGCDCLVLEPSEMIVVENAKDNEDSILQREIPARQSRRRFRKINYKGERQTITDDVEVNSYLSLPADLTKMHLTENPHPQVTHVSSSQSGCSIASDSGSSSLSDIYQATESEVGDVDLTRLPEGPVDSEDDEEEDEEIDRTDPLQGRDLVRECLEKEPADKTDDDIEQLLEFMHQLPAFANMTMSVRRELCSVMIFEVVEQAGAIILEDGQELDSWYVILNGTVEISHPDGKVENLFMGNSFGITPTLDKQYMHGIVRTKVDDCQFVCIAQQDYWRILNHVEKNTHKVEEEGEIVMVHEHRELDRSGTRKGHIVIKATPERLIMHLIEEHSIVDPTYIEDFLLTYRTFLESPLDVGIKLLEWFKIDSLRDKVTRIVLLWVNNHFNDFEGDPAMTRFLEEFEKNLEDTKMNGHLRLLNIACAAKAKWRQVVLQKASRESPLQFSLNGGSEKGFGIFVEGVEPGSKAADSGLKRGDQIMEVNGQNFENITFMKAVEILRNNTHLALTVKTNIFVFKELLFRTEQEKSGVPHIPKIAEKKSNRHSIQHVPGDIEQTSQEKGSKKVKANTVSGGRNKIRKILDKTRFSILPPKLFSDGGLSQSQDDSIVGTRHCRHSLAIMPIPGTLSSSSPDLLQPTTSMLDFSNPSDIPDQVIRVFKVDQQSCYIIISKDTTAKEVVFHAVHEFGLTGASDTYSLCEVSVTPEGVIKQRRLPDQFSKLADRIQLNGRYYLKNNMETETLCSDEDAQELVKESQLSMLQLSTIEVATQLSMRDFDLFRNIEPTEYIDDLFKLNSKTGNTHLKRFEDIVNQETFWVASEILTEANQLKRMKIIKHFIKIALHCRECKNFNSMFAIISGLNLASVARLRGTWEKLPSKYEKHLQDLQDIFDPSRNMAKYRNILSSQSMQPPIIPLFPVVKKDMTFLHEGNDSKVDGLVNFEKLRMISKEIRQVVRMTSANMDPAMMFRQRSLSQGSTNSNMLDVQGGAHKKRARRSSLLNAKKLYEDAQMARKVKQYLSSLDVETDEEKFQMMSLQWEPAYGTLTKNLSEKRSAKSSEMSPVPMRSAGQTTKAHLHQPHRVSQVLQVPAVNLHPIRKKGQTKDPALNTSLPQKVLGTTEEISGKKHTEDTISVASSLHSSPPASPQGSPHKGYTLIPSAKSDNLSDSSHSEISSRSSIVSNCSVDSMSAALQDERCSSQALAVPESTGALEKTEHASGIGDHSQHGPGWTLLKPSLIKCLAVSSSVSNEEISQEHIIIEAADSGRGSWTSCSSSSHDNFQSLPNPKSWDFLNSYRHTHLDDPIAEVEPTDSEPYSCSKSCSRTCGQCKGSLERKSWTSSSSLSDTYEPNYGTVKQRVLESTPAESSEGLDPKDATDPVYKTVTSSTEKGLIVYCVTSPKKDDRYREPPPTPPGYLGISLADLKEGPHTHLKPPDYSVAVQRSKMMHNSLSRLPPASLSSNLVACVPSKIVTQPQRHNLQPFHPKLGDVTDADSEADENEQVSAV

T1: PTPRK ICD-D1057A (substrate-trapping mutant) (human) (UniProt Q15262)
T1 sequence (chain, biotin on the AviTag): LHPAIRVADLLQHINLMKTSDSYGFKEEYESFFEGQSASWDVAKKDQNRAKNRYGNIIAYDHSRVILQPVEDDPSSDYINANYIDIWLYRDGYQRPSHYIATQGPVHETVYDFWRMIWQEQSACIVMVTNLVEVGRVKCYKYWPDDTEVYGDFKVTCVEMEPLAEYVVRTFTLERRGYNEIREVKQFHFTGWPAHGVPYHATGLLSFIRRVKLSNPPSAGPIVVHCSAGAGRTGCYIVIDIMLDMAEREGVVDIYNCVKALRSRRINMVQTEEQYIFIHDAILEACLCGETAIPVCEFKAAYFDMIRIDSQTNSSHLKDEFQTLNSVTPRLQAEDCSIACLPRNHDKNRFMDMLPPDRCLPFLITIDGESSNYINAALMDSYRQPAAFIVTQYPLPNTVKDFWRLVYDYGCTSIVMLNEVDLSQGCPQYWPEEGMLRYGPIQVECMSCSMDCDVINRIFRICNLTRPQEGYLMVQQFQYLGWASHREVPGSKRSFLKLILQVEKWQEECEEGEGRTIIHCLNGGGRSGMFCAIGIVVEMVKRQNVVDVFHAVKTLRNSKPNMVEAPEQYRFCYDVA

T2: PTPRK ICD-C1089S (substrate-trapping mutant) (human) (UniProt Q15262)
T2 sequence (chain, biotin on the AviTag): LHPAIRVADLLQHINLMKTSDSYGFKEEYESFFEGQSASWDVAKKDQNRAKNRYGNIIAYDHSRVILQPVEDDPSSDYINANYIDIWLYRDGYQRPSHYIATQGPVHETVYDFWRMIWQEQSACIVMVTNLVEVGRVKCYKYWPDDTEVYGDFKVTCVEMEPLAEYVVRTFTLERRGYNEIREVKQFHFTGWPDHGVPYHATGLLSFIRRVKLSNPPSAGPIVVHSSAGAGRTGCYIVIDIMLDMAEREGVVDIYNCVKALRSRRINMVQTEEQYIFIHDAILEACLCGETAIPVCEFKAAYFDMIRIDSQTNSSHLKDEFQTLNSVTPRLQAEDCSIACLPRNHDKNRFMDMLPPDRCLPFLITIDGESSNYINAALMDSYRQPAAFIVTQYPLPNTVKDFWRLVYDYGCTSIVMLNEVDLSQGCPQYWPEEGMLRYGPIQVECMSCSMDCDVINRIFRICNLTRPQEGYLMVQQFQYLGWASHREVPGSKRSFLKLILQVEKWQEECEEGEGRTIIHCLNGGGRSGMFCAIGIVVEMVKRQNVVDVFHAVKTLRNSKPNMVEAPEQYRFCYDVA

T3: PTPRK-C1089S.BirA*-Flag (human) (UniProt Q15262)
T3 sequence: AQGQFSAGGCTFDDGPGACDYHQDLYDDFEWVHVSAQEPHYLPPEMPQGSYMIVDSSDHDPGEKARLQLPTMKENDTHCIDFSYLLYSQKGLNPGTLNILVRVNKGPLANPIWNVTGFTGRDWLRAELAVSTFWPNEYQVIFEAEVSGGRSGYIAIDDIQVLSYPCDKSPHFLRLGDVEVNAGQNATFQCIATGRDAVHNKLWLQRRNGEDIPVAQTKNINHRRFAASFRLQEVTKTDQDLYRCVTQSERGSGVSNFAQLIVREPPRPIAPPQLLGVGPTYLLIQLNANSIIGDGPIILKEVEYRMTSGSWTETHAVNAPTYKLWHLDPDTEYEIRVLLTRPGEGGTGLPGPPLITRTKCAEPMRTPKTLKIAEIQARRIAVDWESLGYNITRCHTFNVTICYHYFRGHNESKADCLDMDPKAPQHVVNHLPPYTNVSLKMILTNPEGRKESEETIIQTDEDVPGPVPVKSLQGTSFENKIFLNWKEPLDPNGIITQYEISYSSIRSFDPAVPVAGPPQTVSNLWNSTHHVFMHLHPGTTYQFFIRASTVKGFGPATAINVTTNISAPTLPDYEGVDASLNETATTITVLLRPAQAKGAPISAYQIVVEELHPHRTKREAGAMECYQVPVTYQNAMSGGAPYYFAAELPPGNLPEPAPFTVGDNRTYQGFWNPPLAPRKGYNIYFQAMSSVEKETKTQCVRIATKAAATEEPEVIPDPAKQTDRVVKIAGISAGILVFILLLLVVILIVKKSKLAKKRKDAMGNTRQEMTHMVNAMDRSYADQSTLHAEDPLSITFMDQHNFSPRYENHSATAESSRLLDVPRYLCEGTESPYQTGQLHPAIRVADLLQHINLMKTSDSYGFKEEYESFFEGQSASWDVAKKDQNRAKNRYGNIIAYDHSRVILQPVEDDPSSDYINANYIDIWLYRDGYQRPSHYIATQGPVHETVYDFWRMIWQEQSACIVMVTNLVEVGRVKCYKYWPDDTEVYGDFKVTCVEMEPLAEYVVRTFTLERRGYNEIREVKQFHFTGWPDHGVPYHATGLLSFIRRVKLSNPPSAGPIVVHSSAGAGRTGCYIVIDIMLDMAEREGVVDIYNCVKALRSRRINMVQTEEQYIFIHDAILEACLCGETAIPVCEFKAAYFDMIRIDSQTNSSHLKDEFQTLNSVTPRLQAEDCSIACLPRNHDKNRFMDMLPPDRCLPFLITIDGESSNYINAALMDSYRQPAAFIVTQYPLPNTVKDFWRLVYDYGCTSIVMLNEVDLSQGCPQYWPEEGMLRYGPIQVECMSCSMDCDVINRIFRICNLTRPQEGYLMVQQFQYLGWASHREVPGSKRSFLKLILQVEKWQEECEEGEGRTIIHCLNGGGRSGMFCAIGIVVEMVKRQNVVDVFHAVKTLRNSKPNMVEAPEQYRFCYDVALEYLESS


Assays:
[1] = molecular target: T1, PTPRK ICD-D1057A (substrate-trapping mutant) (human); test: affinity purification with mass spectrometry; biotinylated His.TEV.Avi PTPRK domains on streptavidin-coated magnetic beads; 1 mg/ml pre-cleared lysate of confluent, pervanadate-treated MCF10A cells, 1.5 hr at 4°C; washes with 150 mM and 500 mM NaCl wash buffers; on-bead tryptic digest; label-free quantification against beads only or the wildtype ICD (n = 4; D2 n = 3); only the target purified
[2] = molecular target: T1, PTPRK ICD-D1057A (substrate-trapping mutant) (human); test: affinity purification with mass spectrometry; as for MCF10A, with lysates of confluent, pervanadate-treated Hs27 human fibroblasts (n = 3); only the target purified
[3] = molecular target: T2, PTPRK ICD-C1089S (substrate-trapping mutant) (human); test: affinity purification with mass spectrometry; biotinylated His.TEV.Avi PTPRK domains on streptavidin-coated magnetic beads; 1 mg/ml pre-cleared lysate of confluent, pervanadate-treated MCF10A cells, 1.5 hr at 4°C; washes with 150 mM and 500 mM NaCl wash buffers; on-bead tryptic digest; label-free quantification against beads only or the wildtype ICD (n = 4; D2 n = 3); only the target purified
[4] = molecular target: T3, PTPRK-C1089S.BirA*-Flag (human); test: proximity labelling; BioID in confluent MCF10A cells: doxycycline-induced PTPRK-C1089S.BirA*-Flag compared with PTPRK(1-785).BirA*-Flag and tGFP; 50 μM biotin for 24 hr; RIPA lysis, streptavidin agarose pull down, immunoblot
[5] = molecular target: T2, PTPRK ICD-C1089S (substrate-trapping mutant) (human); test: affinity purification with mass spectrometry; as for MCF10A, with lysates of confluent, pervanadate-treated Hs27 human fibroblasts (n = 3); only the target purified

| Molecule | binding [1] | binding [2] | binding [3] | binding [4] | binding [5] |
| --- | --- | --- | --- | --- | --- |
| PARD3 (from UniProt Q8TEW0 1-1356) |  |  | binds | binds | binds |
| PLEKHA6 (protein, UniProt Q9Y2H5 1-1048) MSNKTGGKRPATTNSDIPNHNMVSEVPPERPSVRATRTARKAVAFGKRSHSMKRNPNAPVTKAGWLFKQASSGVKQWNKRWFVLVDRCLFYYKDEKEESILGSIPLLSFRVAAVQPSDNISRKHTFKAEHAGVRTYFFSAESPEEQEAWIQAMGEAARVQIPPAQKSVPQAVRHSHEKPDSENVPPSKHHQQPPHNSLPKPEPEAKTRGEGDGRGCEKAERRPERPEVKKEPPVKANGLPAGPEPASEPGSPYPEGPRVPGGGEQPAQPNGWQYHSPSRPGSTAFPSQDGETGGHRRSFPPRTNPDKIAQRKSSMNQLQQWVNLRRGVPPPEDLRSPSRFYPVSRRVPEYYGPYSSQYPDDYQYYPPGVRPESICSMPAYDRISPPWALEDKRHAFRNGGGPAYQLREWKEPASYGRQDATVWIPSPSRQPVYYDELDAASSSLRRLSLQPRSHSVPRSPSQGSYSRARIYSPVRSPSARFERLPPRSEDIYADPAAYVMRRSISSPKVPPYPEVFRDSLHTYKLNEQDTDKLLGKLCEQNKVVREQDRLVQQLRAEKESLESALMGTHQELEMFGSQPAYPEKLRHKKDSLQNQLINIRVELSQATTALTNSTIEYEHLESEVSALHDDLWEQLNLDTQNEVLNRQIQKEIWRIQDVMEGLRKNNPSRGTDTAKHRGGLGPSATYSSNSPASPLSSASLTSPLSPFSLVSGSQGSPTKPGSNEPKANYEQSKKDPHQTLPLDTPRDISLVPTRQEVEAEKQAALNKVGVVPPRTKSPTDDEVTPSAVVRRNASGLTNGLSSQERPKSAVFPGEGKVKMSVEEQIDRMRRHQSGSMREKRRSLQLPASPAPDPSPRPAYKVVRRHRSIHEVDISNLEAALRAEEPGGHAYETPREEIARLRKMELEPQHYDVDINKELSTPDKVLIPERYIDLEPDTPLSPEELKEKQKKVERIKTLIAKSSMQNVVPIGEGDSVDVPQDSESQLQEQEKRIEISCALATEASRRGRMLSVQCATPSPPTSPASPAPPANPLSSESPRGADSSYTMRV |  |  | binds |  | binds |

Other lines, results leading:

| binding [1] | binding [2] | binding [3] | binding [4] | binding [5] | Molecule |
| --- | --- | --- | --- | --- | --- |
| binds | binds |  |  |  | MAP4K4 (from UniProt O95819 1-1239) |
| binds | binds |  |  |  | RAPGEF6 (from UniProt Q8TEU7 1-1601) |
